This note sets out measurements from PMC5235370.

Chains of the proteins cited; added tags and fusions are not shown.
UniProt Q07817: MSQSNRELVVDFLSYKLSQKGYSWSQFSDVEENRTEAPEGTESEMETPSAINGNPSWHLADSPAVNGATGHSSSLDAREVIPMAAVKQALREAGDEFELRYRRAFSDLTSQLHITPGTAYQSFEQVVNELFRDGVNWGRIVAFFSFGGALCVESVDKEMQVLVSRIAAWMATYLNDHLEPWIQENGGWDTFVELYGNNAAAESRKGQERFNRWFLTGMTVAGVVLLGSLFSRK

No constants are given. Whether binding was seen depends on the method and setting. In cells and extracts the contact can be indirect. Some entries that bind do so weakly or less than the wild type. Sequences can lack the tags named with a protein.

In this assay the target is FLAG-Bcl-xL (human) (UniProt Q07817). In words: co-IP; HEK293T cells co-transfected with the FLAG- and EmGFP-tagged proteins; nutrient-rich or starvation conditions for 2 h, or GAS infection for 4 h; lysis in 50 mM Tris-HCl pH 7.5, 150 mM NaCl, 1% Triton X-100; anti-FLAG antibody and Protein G Sepharose at 4°C; immunoblot with anti-GFP.

B1: EmGFP-UVRAG (protein, UniProt Q9P2Y5-1 1-699)
chain: MSASASVGGPVPQPPPGPAAALPPGSAARALHVELPSQQRRLRHLRNIAARNIVNRNGHQLLDTYFTLHLCSTEKIYKEFYRSEVIKNSLNPTWRSLDFGIMPDRLDTSVSCFVVKIWGGKENIYQLLIEWKVCLDGLKYLGQQIHARNQNEIIFGLNDGYYGAPFEHKGYSNAQKTILLQVDQNCVRNSYDVFSLLRLHRAQCAIKQTQVTVQKIGKEIEEKLRLTSTSNELKKKSECLQLKILVLQNELERQKKALGREVALLHKQQIALQDKGSAFSAEHLKLQLQKESLNELRKECTAKRELFLKTNAQLTIRCRQLLSELSYIYPIDLNEHKDYFVCGVKLPNSEDFQAKDDGSIAVALGYTAHLVSMISFFLQVPLRYPIIHKGSRSTIKDNINDKLTEKEREFPLYPKGGEKLQFDYGVYLLNKNIAQLRYQHGLGTPDLRQTLPNLKNFMEHGLMVRCDRHHTSSAIPVPKRQSSIFGGADVGFSGGIPSPDKGHRKRASSENERLQYKTPPPSYNSALAQPVTTVPSMGETERKITSLSSSLDTSLDFSKENKKKGEDLVGSLNGGHANVHPSQEQGEALSGHRATVNGTLLPSEQAGSASVQLPGEFHPVSEAELCCTVEQAEEIIGLEATGFASGDQLEAFNCIPVDSAVAVECDEQVLGEFEEFSRRIYALNENVSSFRRPRRSSDK
For the molecule B1, the binding entry is “binds”.
